Measured values as given in patent US20250376528A1.
No constants are given. Whether binding was seen depends on the method and setting. Some binding calls cover weakened binding; strength is not graded here.

Chains of the proteins cited; added tags and fusions are not shown. Residues count along the entry.
UniProt Q08334, residues 20-220: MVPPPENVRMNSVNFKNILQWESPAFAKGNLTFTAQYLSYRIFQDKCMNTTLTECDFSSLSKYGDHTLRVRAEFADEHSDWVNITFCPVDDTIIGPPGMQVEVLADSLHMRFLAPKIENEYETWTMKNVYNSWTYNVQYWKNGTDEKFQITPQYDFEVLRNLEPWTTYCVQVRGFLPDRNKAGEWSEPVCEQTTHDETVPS

These binders were tested against extracellular domain of human IL10Rβ (amino acids 20-220, UniProtKB Q08334) (human) (UniProt Q08334) (assay: phage display biopanning on the antigen, positive colonies by PE-ELISA).

| Binder | binding |
| --- | --- |
| anti-hIL-10Rβecd VHH SEQ ID NO 51 (VHH) VHH: QVQLQESGGGSVQAGGSLRLSCAASGYTYSSGCMGWFRQAPGKEREAVAAINSDGSTSYADSVKGRFTISKDNAKNTLYLQMNSLKPEDTAMYYCAAEPYCSGGYPRWSVAEFGYWGQGTQVTVSS | binds |
| anti-hIL-10Rβecd VHH SEQ ID NO 53 (VHH) VHH: QVQLQESGGGSVQAGGSLRLSCAASRYTYNSYCMGWFRQAPGKEREGVATIDSDGMTRYADSVKGRFTISKDNAKNTLYLQMNSLKPEDTAMYYCAADADCTIAAMTTNPLGQGTQVTVSS | binds |

Second part, the binder after the results:

| binding | Binder |
| --- | --- |
| binds | anti-hIL-10Rβecd VHH SEQ ID NO 55 (VHH) VHH: QVQLQESGGGSVEAGGSLRLSCAASGYTHSSYCMGWFRQAPGKEREGVAAIDVDGSTTYADSVKGRFTISKDNAKNTLYLQMNSLKPEDTGMYYCAAEFADCSSNYFLPPGAVRYWGQGTQVTVSS |
| binds | anti-hIL-10Rβecd VHH SEQ ID NO 54 (VHH) VHH: QVQLQESGGGSVQAGGSLRLSCTVSRYTASVNYMGWFRQAPGKEREGVATIFTGAGTTYYANSVKGRFTISRDNAKNTAYLQMNSLKPEDTAIYYCAVDFRGGLLYRPAYEYTYRGQGTQVTVSS |
